Measurements: patent publication US20140336127A1, “Stabilized Peptide Helices For Inhibiting Dimerization Of Chemokine C Motif Receptor 2 (CCR2)” (Yissum Research Development Company of the Hebrew …, priority 2012, published 2014)
Part of at least one peptide drawing is inferred or uncertain, most often the ends. Residues, ends and D or L forms follow the SMILES beside them.

Biological target: T1, CCR2 (Homo sapiens, UniProt P41597)
T1 construct: endogenous in cells; host or cells: THP-1
T1 sequence (P41597 1-360 isoform P41597-2): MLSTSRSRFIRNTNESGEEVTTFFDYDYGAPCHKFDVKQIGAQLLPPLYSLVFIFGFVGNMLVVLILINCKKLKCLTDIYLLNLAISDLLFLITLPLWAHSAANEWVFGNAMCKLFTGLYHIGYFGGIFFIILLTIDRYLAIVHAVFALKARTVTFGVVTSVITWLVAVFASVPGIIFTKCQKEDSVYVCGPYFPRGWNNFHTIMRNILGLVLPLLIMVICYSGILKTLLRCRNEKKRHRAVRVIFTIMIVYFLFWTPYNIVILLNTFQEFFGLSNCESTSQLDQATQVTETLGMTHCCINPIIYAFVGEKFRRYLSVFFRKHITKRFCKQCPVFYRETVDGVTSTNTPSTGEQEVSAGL
Experiment: transwell migration assay with MCP-1 as chemoattractant (THP-1 cells)
Format: cell-based
Conditions: peptide 10 μM, compared with untreated control, FIG. 2
Protocol: A transwell migration assay (Bignold, L. P., J Immunol Methods 1987, 105, (2), 275-80) was performed using MCP-1 as a chemoattractant. The chemokine MCP-1 reacts only with the chemokine receptors CCR2 and CCR4. […] In this experiment, THP-1 cells were placed in the upper well of the trans-migration plate and specific migration was induced by placing MCP-1 in the lower well. The cells were allowed to migrate spontaneously or toward the chemokine, and counted after migration. To evaluate the effect of hCCR2b(61-67) on MCP-1-induced migration, the peptide (10 μM) was incubated with the cells and the number of migrating cells in the lower wells were determined.
The simple transwell migration assay (Mandelboim, O. Protocol Exchange (2006) doi:10.1038/nprot.2006.210) was used for evaluating the chemotactic migration in the presence of M3D-1. M3D-1 inhibited THP-1 cells migration towards MCP-1 (FIG. 7 stripes).

## CC[C@H](C)[C@H](NC(=O)[C@H](CC(C)C)NC(=O)[C@@H](NC(=O)[C@@H](NC(=O)[C@H](CC(C)C)NC(=O)[C@@H](N)CCSC)C(C)C)C(C)C)C(=O)N[C@@H](CC(C)C)C(=O)O [hCCR2b(61-67), MLVVLIL] (H-MLVVLIL-OH; N-terminus and C-terminus assumed)
  number of migrating cells, MCP-1-induced migration: reduced compared with the untreated control
